Data as given in US6395275.
These are yes or no findings as the source states them, for the method shown. Some binding calls cover weakened binding; strength is not graded here.

B1: Fab QA12 (Fab, V domains shown)
VH: LEQSGAEVKKPGASVKVSCQASGYRFSNFTVHWVRQAPGQRFEWMGWINPYNGNKEFSAKFQDRVTFTADTSANTAYMELRSLRSADTAVYYCARVGEWGWDDSPQDNYYMDVWGKGTTVIVSS
VL: ELTQSPGTLSLSPGERATFSCRSSHQLDGSRVAWYQHKPGQAPRLVIHGVSNRASGISDRFSGSGSGTDFTLTITRVEPEDFALYYCQTYGRGIYTFGQGTKLERKR
B2: Fab B (Fab, V domains shown)
VH: LEQSGAEVKKPGASVKVSCQASGYRFSNFTVHWVRQAPGQRFEWMGWINPYNGNKEFSAKFQDRVTFTADTSANTAYMELRSLRSADTAVYYCARVGEWGWDDSPQDNYYMDVWGKGTTVIVSS
VL: ELTQSPGTLSLSPGERATFSCRSSHTVYRDRVAWYQHKPGQAPRLVIHGVSNRASGISDRFSGSGSGTDFTLTITRVEPEDFALYYCQVYGASSYTFGQGTKLERKR

Experiments:
[1] = target: recombinant gp120 of HIV-1 strain IIIb (HIV-1 strain IIIb) (UniProt P04578); test: phage panning on gp120, competition with soluble Fab 3b3 then acid elution
[2] = target: recombinant gp120 of HIV-1 strain IIIb (HIV-1 strain IIIb) (UniProt P04578); test: phage panning on gp120

Row | Binder | binding [1] | binding [2]
1 | B1 | binds | –
2 | B2 | – | binds
